Experimental findings from patent publication US10174081B2 (priority 2011, dated 2019) are described below.

Where a sequence shows no end group, the ends are not given.

One series can be described thus: peptide made by a vendor. To be noted: whole synthesis, TFA salt.
With KRAKKFFKKLK-NH2, the “purity (crude or final not stated)” value was found to be 94.5%. Consider KRAKKFFKKPK-NH2, for which the “purity (crude or final not stated)” value is 88.2%.

In the case of KRFKKFFKKLK-NH2, the “purity (crude or final not stated)” value was 97.2%. For the substance KRFKKFFKKLKNSVKKRAKKFFKKPKVIGVTFPF, the “purity (crude or final not stated)” value is on record as 86.1%.

As to KRFKKFFKKLKNSVKKRFKKFFKKLKVIGVTFPF, the “purity (crude or final not stated)” value came out at 89.7%.

The same series, now with this note: whole synthesis, TFA salt; run 1.
Turning to “LLGDFFRKSKEKIGKEFKRIVQRIKDFLRNLVPRTES [D-LL-37]”, the “purity (crude or final not stated)” value is on record as 92.0% purity. Take “LLGDFFRKSKEKIGKEFKRIVQRIKDFLRNLVPRTES [LL-37]”: the “purity (crude or final not stated)” value was 95% purity.
